This is an account of results in article PMC9563052.

Sequences of proteins named here, by UniProt entry; tags and fusion partners are left off. A change or cut given only in a name is not applied to a line headed by its entry.
UniProt P08514: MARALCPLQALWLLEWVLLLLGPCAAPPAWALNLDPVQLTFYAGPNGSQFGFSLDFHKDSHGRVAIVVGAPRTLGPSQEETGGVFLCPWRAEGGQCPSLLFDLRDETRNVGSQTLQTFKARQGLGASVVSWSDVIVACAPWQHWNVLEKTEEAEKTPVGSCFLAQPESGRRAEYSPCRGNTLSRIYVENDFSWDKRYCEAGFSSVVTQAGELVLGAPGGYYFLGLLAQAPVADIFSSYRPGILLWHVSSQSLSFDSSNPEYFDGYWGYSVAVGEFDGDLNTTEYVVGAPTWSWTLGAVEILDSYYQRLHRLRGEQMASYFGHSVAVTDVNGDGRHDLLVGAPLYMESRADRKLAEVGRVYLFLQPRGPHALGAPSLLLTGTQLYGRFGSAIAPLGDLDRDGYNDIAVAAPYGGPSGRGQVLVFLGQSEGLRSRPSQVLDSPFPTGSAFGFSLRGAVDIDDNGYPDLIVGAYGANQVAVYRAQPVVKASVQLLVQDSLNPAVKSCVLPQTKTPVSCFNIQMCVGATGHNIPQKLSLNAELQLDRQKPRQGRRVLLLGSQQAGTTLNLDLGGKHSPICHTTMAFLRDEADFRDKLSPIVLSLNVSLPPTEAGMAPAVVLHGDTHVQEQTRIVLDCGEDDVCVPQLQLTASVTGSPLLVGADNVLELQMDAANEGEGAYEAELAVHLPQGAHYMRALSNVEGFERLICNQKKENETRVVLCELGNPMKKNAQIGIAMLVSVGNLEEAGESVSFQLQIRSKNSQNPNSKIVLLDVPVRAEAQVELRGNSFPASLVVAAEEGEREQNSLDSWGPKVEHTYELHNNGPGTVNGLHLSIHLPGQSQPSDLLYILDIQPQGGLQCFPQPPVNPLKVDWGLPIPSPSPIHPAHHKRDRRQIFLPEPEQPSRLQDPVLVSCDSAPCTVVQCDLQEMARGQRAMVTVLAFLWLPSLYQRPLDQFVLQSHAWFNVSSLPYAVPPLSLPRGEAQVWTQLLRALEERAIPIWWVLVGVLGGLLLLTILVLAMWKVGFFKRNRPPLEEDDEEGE
UniProt P05106: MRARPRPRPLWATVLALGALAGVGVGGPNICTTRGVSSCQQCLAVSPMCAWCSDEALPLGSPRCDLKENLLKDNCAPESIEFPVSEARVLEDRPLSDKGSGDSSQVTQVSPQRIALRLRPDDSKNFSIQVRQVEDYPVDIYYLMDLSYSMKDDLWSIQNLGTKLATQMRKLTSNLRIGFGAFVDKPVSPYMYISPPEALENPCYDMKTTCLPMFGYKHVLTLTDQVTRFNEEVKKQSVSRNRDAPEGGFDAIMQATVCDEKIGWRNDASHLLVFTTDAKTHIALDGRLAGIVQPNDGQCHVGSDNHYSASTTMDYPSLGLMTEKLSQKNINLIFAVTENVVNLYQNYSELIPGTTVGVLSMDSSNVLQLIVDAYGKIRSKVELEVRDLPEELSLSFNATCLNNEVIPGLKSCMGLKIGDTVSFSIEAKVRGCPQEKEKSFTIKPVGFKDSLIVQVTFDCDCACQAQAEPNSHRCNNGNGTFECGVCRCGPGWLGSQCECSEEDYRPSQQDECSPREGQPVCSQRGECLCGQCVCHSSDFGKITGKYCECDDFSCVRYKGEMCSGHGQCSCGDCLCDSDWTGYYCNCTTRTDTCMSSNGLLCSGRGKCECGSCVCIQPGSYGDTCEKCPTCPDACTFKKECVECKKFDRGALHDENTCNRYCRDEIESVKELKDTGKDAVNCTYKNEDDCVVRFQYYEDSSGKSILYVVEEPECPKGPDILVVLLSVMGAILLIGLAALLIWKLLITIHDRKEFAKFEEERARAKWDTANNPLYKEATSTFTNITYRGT

These are yes or no findings as the source states them, for the method shown. Some entries that bind do so weakly or less than the wild type.

The experiment addresses cell-surface αIIbβ3 on CHO cells (recombinant human αIIbβ3) (human) (UniProt P08514+P05106). Nature of the experiment: flow cytometry on cells; αIIbβ3-CHO cells in HEPES-Tyrodes buffer/0.02% BSA, 1 mM Ca2+, incubated with chemokines (CCL5, CXCL12 or CX3CL1) 30 min on ice, then FITC-labeled γC390-411 (50 µg/mL) 30 min at room temperature; only the binder purified. Background: In flow cytometry, cells or beads pass a laser one at a time.

As to NRLTIGEGQQHHLGGAKQAGDV (FITC-labeled) [FITC-labeled γC390-411], the binding result is “binds”.
